From patent US20190225705A1
No constants are given. Whether binding was seen depends on the method and setting. Some entries that bind do so weakly or less than the wild type.

Chains of the proteins cited; added tags and fusions are not shown. Lines headed by an entry give the natural chain unless they say otherwise; changes in a name come on top.
UniProt P03951: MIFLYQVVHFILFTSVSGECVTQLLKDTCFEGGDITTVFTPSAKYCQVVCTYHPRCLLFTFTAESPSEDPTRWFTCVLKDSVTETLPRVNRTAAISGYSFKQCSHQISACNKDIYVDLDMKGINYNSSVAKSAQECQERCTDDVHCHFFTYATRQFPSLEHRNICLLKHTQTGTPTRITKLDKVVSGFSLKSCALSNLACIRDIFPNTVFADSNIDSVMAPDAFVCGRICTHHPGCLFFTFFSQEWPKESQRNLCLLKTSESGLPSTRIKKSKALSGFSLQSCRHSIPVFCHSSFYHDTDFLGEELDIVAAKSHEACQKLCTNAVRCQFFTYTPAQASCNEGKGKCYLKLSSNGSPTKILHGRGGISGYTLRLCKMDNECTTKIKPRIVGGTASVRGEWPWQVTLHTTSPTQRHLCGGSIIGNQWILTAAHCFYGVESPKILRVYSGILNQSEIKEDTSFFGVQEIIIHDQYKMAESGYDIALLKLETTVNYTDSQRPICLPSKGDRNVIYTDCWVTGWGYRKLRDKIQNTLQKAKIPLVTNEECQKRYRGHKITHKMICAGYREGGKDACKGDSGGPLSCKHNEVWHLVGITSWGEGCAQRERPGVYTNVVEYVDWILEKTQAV

How the values were obtained:
[1] = target: human coagulation factor XI (human) (UniProt P03951); assay: competitive ELISA on coated FXI, competitor biotinylated 1A6
[2] = target: human coagulation factor XI (human) (UniProt P03951); assay: ELISA on coated human FXI, anti-h-Fc-POD detection
[3] = target: human coagulation factor XI (human) (UniProt P03951); assay: ELISA on coated human FXI
[4] = target: human coagulation factor XI (human) (UniProt P03951); assay: biochemical assays (ELISA)

Measured: binding

B1: humanized and germlined anti-FXI antibody TPP-3577 (antibody, human IgG1, kappa, V domains shown)
VH: EVTLRESGPALVKPTQTLTLTCTFSGFSLSTSGMCVGWIRQPPGKALEWLAHIDWDDDKYYSTSLKSRLTISKDTSKNQVVLTMTNMDPVDTATYYCARIRSSVYAHYYGMDVWGQGTTVTVSS
VL: DIVMTQSPDSLAVSLGERATISCKSSQSVLYSGDNYLNWYQQKPGQPPKLLIYAASTLESGIPDRFSGSGSGTDFTLTISSLQAEDVAVYYCQQYNGDPWTFGGGTKVEIKR
binds: [1] | [2] | [3] | [4]
